{"sequences": {"note": "Chains of the proteins cited; added tags and fusions are not shown. Residues count along the entry.", "UniProt P05556, 21-798 limits assumed": "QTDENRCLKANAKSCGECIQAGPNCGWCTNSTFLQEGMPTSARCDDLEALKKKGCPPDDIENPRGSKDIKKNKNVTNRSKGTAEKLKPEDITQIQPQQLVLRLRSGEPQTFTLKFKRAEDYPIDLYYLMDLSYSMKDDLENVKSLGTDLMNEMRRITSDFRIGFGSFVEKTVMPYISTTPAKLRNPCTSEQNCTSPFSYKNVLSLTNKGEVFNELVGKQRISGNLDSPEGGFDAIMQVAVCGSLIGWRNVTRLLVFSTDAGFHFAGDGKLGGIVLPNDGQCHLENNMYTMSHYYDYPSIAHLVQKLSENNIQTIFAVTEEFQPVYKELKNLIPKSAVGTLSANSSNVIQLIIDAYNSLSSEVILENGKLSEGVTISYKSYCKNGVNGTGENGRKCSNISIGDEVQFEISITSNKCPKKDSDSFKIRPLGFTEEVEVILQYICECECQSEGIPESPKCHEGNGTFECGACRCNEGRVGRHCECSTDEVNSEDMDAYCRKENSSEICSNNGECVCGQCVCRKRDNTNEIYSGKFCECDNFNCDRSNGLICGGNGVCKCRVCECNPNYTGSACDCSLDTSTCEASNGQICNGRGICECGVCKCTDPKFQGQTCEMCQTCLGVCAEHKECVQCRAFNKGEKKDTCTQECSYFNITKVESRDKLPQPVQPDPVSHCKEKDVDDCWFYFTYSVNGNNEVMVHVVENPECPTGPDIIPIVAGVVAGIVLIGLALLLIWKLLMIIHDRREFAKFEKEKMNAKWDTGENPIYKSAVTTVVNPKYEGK", "UniProt P13612, 34-1032 limits assumed": "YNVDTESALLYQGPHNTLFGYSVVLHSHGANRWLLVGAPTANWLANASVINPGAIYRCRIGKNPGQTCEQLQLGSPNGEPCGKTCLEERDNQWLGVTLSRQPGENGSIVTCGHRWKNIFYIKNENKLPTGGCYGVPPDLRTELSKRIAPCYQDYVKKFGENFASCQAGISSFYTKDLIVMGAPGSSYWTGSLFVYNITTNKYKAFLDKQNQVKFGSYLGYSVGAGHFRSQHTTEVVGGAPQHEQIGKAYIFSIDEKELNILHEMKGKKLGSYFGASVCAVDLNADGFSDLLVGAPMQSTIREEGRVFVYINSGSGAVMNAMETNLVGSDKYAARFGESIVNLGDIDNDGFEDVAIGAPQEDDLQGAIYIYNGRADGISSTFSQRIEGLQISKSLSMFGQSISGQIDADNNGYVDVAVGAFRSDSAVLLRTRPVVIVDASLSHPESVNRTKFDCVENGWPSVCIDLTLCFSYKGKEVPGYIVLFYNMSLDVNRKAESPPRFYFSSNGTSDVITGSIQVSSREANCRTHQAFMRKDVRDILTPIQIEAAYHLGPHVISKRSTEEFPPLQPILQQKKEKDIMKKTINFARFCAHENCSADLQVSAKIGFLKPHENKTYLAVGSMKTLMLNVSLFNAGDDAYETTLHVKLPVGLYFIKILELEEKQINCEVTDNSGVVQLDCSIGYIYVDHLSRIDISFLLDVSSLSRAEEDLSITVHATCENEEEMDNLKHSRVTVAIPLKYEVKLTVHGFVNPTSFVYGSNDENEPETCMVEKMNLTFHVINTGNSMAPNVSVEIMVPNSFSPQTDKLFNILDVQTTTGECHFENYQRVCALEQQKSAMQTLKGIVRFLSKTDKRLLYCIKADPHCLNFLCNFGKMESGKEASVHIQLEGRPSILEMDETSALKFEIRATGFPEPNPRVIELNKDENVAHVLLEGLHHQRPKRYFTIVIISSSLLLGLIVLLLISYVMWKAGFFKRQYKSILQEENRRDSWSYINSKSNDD", "UniProt P26010, 20-798 limits assumed": "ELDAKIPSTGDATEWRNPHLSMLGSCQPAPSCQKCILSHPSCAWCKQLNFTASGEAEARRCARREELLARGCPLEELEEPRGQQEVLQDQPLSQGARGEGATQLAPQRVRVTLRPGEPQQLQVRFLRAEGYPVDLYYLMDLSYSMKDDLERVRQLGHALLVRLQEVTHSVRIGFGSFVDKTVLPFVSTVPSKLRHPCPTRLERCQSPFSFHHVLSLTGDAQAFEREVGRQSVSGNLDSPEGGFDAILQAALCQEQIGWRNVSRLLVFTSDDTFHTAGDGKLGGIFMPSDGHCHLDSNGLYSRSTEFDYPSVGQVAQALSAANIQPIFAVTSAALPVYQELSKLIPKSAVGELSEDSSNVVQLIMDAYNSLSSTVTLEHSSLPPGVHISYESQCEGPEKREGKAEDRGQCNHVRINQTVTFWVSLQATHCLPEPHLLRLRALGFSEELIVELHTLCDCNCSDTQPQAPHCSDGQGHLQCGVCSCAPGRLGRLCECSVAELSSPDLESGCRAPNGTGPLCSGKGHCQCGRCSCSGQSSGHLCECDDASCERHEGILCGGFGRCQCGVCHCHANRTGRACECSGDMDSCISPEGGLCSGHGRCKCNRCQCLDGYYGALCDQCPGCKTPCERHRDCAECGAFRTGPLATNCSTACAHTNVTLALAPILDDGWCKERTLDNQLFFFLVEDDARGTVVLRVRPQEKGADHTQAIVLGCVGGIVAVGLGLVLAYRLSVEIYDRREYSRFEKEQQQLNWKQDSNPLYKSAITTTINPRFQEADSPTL"}, "source": "patent US7605165B2", "about": "“Phenylalanine derivatives” (Ajinomoto Co., Inc., priority 2002, dated 2009)", "key": {"[1]": {"target": "integrin α4β1 (Homo sapiens, UniProt P05556+P13612)", "assay": "Assessment of VCAM-1/α4β1 binding antagonist activity (Jurkat cells binding to VCAM-1)", "details": "read-out: integrin VCAM/α4 binding antagonistic activity (IC50) α4β1; Jurkat human T cells binding to recombinant human VCAM-1"}, "[2]": {"target": "integrin α4β7 (Homo sapiens, UniProt P13612+P26010)", "assay": "Assessment of VCAM-1/α4β7 binding antagonistic activity (RPMI-8866 cells binding to VCAM-1)", "details": "read-out: integrin VCAM/α4 binding antagonistic activity (IC50) α4β7; RPMI-8866 human B lymphoma cells binding to recombinant human VCAM-1, binding buffer with 4 mM MnCl2"}}, "note": "The match of structure and compound is tentative."}
{"smiles": "Cn1c(=O)n(-c2ccc(C[C@H](NC(=O)c3c(Cl)cccc3Cl)C(=O)O)cc2)c(=O)c2nccnc21", "values": [{"measurement": "IC50", "setting": "[1]", "result": 0.06, "unit": "µM"}, {"measurement": "IC50", "setting": "[2]", "result": 0.0023, "unit": "µM"}]}
